Measurements reported in PubChem BioAssay AID1508597 (Cure First, 2020)

- Assay: 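Survival screen with siRNA in ovarian cancer cells derived from patients, with or without rucaparib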 (primary screen)
- Cells: human ovarian carcinoma lines grown from tumours: OCI-P5x (papillary serous) and OCI-C5x (clear cell)
- Reagent: siRNA pool against human genes, 1.25 pmol siRNA per well
- Time to read-out: 72 h or 96 h, depending on the cell culture
- Challenge: rucaparib 20 µM (about IC30) or vehicle, present until read-out
- Detection: 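Luminescent ATP-based viability assay read 72 or 96 h after transfection, depending on culture, given as normalised percent viability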
- Scale: viability, normalised: higher = more viable cells remaining
- Rule for the call: 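a well counts as a hit if its normalised viability is under 80 percent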
- Calls: active = viability under 80%; inactive = viability 80% or more
The whole screen tested about 2,100 reagents; below is a random part of them. 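Calls flag viability under 80% in either arm, not effects specific to rucaparib; the reference for percent is not stated.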 The record does not give: the 100% reference.

{"gene":"GTF3C4 (general transcription factor IIIC subunit 4)","rucaparib or vehicle":"Rucaparib","cell line":"OCI-C5x (clear cell)","technical replicate":"1","viability, normalised (%)":27.2,"activity call":"active"}
{"gene":"GTF3C4 (general transcription factor IIIC subunit 4)","rucaparib or vehicle":"Rucaparib","cell line":"OCI-C5x (clear cell)","technical replicate":"2","viability, normalised (%)":30.1,"activity call":"active"}
{"gene":"GTF3C4 (general transcription factor IIIC subunit 4)","rucaparib or vehicle":"Rucaparib","cell line":"OCI-C5x (clear cell)","technical replicate":"3","viability, normalised (%)":37.5,"activity call":"active"}
{"gene":"GTF3C4 (general transcription factor IIIC subunit 4)","rucaparib or vehicle":"Rucaparib","cell line":"OCI-P5x (serous)","technical replicate":"1","viability, normalised (%)":43.2,"activity call":"active"}
{"gene":"GTF3C4 (general transcription factor IIIC subunit 4)","rucaparib or vehicle":"Rucaparib","cell line":"OCI-P5x (serous)","technical replicate":"2","viability, normalised (%)":44.9,"activity call":"active"}
{"gene":"GTF3C4 (general transcription factor IIIC subunit 4)","rucaparib or vehicle":"Rucaparib","cell line":"OCI-P5x (serous)","technical replicate":"3","viability, normalised (%)":40.3,"activity call":"active"}
{"gene":"GTF3C4 (general transcription factor IIIC subunit 4)","rucaparib or vehicle":"Vehicle","cell line":"OCI-C5x (clear cell)","technical replicate":"1","viability, normalised (%)":26.9,"activity call":"active"}
{"gene":"GTF3C4 (general transcription factor IIIC subunit 4)","rucaparib or vehicle":"Vehicle","cell line":"OCI-C5x (clear cell)","technical replicate":"2","viability, normalised (%)":34.3,"activity call":"active"}
{"gene":"GTF3C4 (general transcription factor IIIC subunit 4)","rucaparib or vehicle":"Vehicle","cell line":"OCI-C5x (clear cell)","technical replicate":"3","viability, normalised (%)":29,"activity call":"active"}
{"gene":"GTF3C4 (general transcription factor IIIC subunit 4)","rucaparib or vehicle":"Vehicle","cell line":"OCI-P5x (serous)","technical replicate":"1","viability, normalised (%)":49.1,"activity call":"active"}
{"gene":"GTF3C4 (general transcription factor IIIC subunit 4)","rucaparib or vehicle":"Vehicle","cell line":"OCI-P5x (serous)","technical replicate":"2","viability, normalised (%)":41.9,"activity call":"active"}
{"gene":"GTF3C4 (general transcription factor IIIC subunit 4)","rucaparib or vehicle":"Vehicle","cell line":"OCI-P5x (serous)","technical replicate":"3","viability, normalised (%)":53.1,"activity call":"active"}
{"gene":"MAP3K15 (mitogen-activated protein kinase kinase kinase 15)","rucaparib or vehicle":"Rucaparib","cell line":"OCI-C5x (clear cell)","technical replicate":"1","viability, normalised (%)":58.7,"activity call":"active"}
{"gene":"MAP3K15 (mitogen-activated protein kinase kinase kinase 15)","rucaparib or vehicle":"Rucaparib","cell line":"OCI-C5x (clear cell)","technical replicate":"2","viability, normalised (%)":44.6,"activity call":"active"}
{"gene":"MAP3K15 (mitogen-activated protein kinase kinase kinase 15)","rucaparib or vehicle":"Rucaparib","cell line":"OCI-C5x (clear cell)","technical replicate":"3","viability, normalised (%)":62.8,"activity call":"active"}
{"gene":"MAP3K15 (mitogen-activated protein kinase kinase kinase 15)","rucaparib or vehicle":"Rucaparib","cell line":"OCI-P5x (serous)","technical replicate":"1","viability, normalised (%)":90.8,"activity call":"inactive"}
{"gene":"MAP3K15 (mitogen-activated protein kinase kinase kinase 15)","rucaparib or vehicle":"Rucaparib","cell line":"OCI-P5x (serous)","technical replicate":"2","viability, normalised (%)":99.6,"activity call":"inactive"}
{"gene":"MAP3K15 (mitogen-activated protein kinase kinase kinase 15)","rucaparib or vehicle":"Rucaparib","cell line":"OCI-P5x (serous)","technical replicate":"3","viability, normalised (%)":40.2,"activity call":"active"}
{"gene":"MAP3K15 (mitogen-activated protein kinase kinase kinase 15)","rucaparib or vehicle":"Vehicle","cell line":"OCI-C5x (clear cell)","technical replicate":"1","viability, normalised (%)":64,"activity call":"active"}
{"gene":"MAP3K15 (mitogen-activated protein kinase kinase kinase 15)","rucaparib or vehicle":"Vehicle","cell line":"OCI-C5x (clear cell)","technical replicate":"2","viability, normalised (%)":60,"activity call":"active"}
{"gene":"MAP3K15 (mitogen-activated protein kinase kinase kinase 15)","rucaparib or vehicle":"Vehicle","cell line":"OCI-C5x (clear cell)","technical replicate":"3","viability, normalised (%)":44.5,"activity call":"active"}
{"gene":"MAP3K15 (mitogen-activated protein kinase kinase kinase 15)","rucaparib or vehicle":"Vehicle","cell line":"OCI-P5x (serous)","technical replicate":"1","viability, normalised (%)":75.3,"activity call":"active"}
{"gene":"MAP3K15 (mitogen-activated protein kinase kinase kinase 15)","rucaparib or vehicle":"Vehicle","cell line":"OCI-P5x (serous)","technical replicate":"2","viability, normalised (%)":64.8,"activity call":"active"}
{"gene":"MAP3K15 (mitogen-activated protein kinase kinase kinase 15)","rucaparib or vehicle":"Vehicle","cell line":"OCI-P5x (serous)","technical replicate":"3","viability, normalised (%)":71.1,"activity call":"active"}
{"gene":"FBXO11 (F-box protein 11)","rucaparib or vehicle":"Rucaparib","cell line":"OCI-C5x (clear cell)","technical replicate":"1","viability, normalised (%)":31.1,"activity call":"active"}
{"gene":"FBXO11 (F-box protein 11)","rucaparib or vehicle":"Rucaparib","cell line":"OCI-C5x (clear cell)","technical replicate":"2","viability, normalised (%)":31.3,"activity call":"active"}
{"gene":"FBXO11 (F-box protein 11)","rucaparib or vehicle":"Rucaparib","cell line":"OCI-C5x (clear cell)","technical replicate":"3","viability, normalised (%)":24.1,"activity call":"active"}
{"gene":"FBXO11 (F-box protein 11)","rucaparib or vehicle":"Rucaparib","cell line":"OCI-P5x (serous)","technical replicate":"1","viability, normalised (%)":43.6,"activity call":"active"}
{"gene":"FBXO11 (F-box protein 11)","rucaparib or vehicle":"Rucaparib","cell line":"OCI-P5x (serous)","technical replicate":"2","viability, normalised (%)":54,"activity call":"active"}
{"gene":"FBXO11 (F-box protein 11)","rucaparib or vehicle":"Rucaparib","cell line":"OCI-P5x (serous)","technical replicate":"3","viability, normalised (%)":67,"activity call":"active"}
{"gene":"FBXO11 (F-box protein 11)","rucaparib or vehicle":"Vehicle","cell line":"OCI-C5x (clear cell)","technical replicate":"1","viability, normalised (%)":24.1,"activity call":"active"}
{"gene":"FBXO11 (F-box protein 11)","rucaparib or vehicle":"Vehicle","cell line":"OCI-C5x (clear cell)","technical replicate":"2","viability, normalised (%)":32,"activity call":"active"}
{"gene":"FBXO11 (F-box protein 11)","rucaparib or vehicle":"Vehicle","cell line":"OCI-C5x (clear cell)","technical replicate":"3","viability, normalised (%)":29.6,"activity call":"active"}
{"gene":"FBXO11 (F-box protein 11)","rucaparib or vehicle":"Vehicle","cell line":"OCI-P5x (serous)","technical replicate":"1","viability, normalised (%)":41.3,"activity call":"active"}
{"gene":"FBXO11 (F-box protein 11)","rucaparib or vehicle":"Vehicle","cell line":"OCI-P5x (serous)","technical replicate":"2","viability, normalised (%)":50.4,"activity call":"active"}
{"gene":"FBXO11 (F-box protein 11)","rucaparib or vehicle":"Vehicle","cell line":"OCI-P5x (serous)","technical replicate":"3","viability, normalised (%)":78.8,"activity call":"active"}
{"gene":"DGKD (diacylglycerol kinase delta)","rucaparib or vehicle":"Rucaparib","cell line":"OCI-C5x (clear cell)","technical replicate":"1","viability, normalised (%)":77.3,"activity call":"active"}
{"gene":"DGKD (diacylglycerol kinase delta)","rucaparib or vehicle":"Rucaparib","cell line":"OCI-C5x (clear cell)","technical replicate":"2","viability, normalised (%)":81.5,"activity call":"inactive"}
{"gene":"DGKD (diacylglycerol kinase delta)","rucaparib or vehicle":"Rucaparib","cell line":"OCI-C5x (clear cell)","technical replicate":"3","viability, normalised (%)":69.5,"activity call":"active"}
{"gene":"DGKD (diacylglycerol kinase delta)","rucaparib or vehicle":"Rucaparib","cell line":"OCI-P5x (serous)","technical replicate":"1","viability, normalised (%)":89.8,"activity call":"inactive"}
{"gene":"DGKD (diacylglycerol kinase delta)","rucaparib or vehicle":"Rucaparib","cell line":"OCI-P5x (serous)","technical replicate":"2","viability, normalised (%)":99.5,"activity call":"inactive"}
{"gene":"DGKD (diacylglycerol kinase delta)","rucaparib or vehicle":"Rucaparib","cell line":"OCI-P5x (serous)","technical replicate":"3","viability, normalised (%)":80.5,"activity call":"inactive"}
{"gene":"DGKD (diacylglycerol kinase delta)","rucaparib or vehicle":"Vehicle","cell line":"OCI-C5x (clear cell)","technical replicate":"1","viability, normalised (%)":63,"activity call":"active"}
{"gene":"DGKD (diacylglycerol kinase delta)","rucaparib or vehicle":"Vehicle","cell line":"OCI-C5x (clear cell)","technical replicate":"2","viability, normalised (%)":56.3,"activity call":"active"}
{"gene":"DGKD (diacylglycerol kinase delta)","rucaparib or vehicle":"Vehicle","cell line":"OCI-C5x (clear cell)","technical replicate":"3","viability, normalised (%)":89.6,"activity call":"inactive"}
{"gene":"DGKD (diacylglycerol kinase delta)","rucaparib or vehicle":"Vehicle","cell line":"OCI-P5x (serous)","technical replicate":"1","viability, normalised (%)":111,"activity call":"inactive"}
{"gene":"DGKD (diacylglycerol kinase delta)","rucaparib or vehicle":"Vehicle","cell line":"OCI-P5x (serous)","technical replicate":"2","viability, normalised (%)":81.7,"activity call":"inactive"}
{"gene":"DGKD (diacylglycerol kinase delta)","rucaparib or vehicle":"Vehicle","cell line":"OCI-P5x (serous)","technical replicate":"3","viability, normalised (%)":93.1,"activity call":"inactive"}
